# Reference: PubChem BioAssay AID504764 (Drosophila RNAi Screening Center, 2011)
# Assay: 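Genome-wide screen for regulators of Notch-driven gene expression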 (primary screen)
# Cells: Drosophila Kc167 cells
# Reagents: long dsRNA against Drosophila genes
# Time to read-out: about 5 days (4 days dsRNA, then 24 h after transfection)
# Treatment: transfection of constitutively active membrane-tethered Notch lacking the extracellular domain, read 24 h later
# Read-out: 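Firefly luciferase from an E(spl)m3 reporter with active Notch, plus control-promoter and uninduced reporter wells for normalisation; unnormalised counts, duplicate wells a and b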
# Scale: induced reporter light, run 1, well a and induced reporter light, run 1, well b: higher = more light from the Notch target reporter with active Notch; control promoter light, run 1, well a and control promoter light, run 1, well b: higher = more light from the viral control promoter (cell number, transfection, viability); uninduced reporter light, run 1, well a: higher = more light from the Notch target reporter without active Notch
# Call rule: 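Wells with low control signal or poorly matching duplicates excluded; duplicates averaged; per source plate, z beyond ±2 for induced/control log2 ratio or beyond ±1.8 for induced/uninduced marks a hit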
# Calls: active = modifier hit (raised or lowered Notch signal); inactive = not a hit
# The screen tested about 22,000 reagents; below is a random part of those with a known target gene and a result. Of all reagents, 403 (1.9%) were called active. 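Unnormalised raw counts per well; ratio z-scores behind the hit calls and whether each hit raises or lowers signal are not deposited.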 Unmarked entries are inactive. The record does not give: the amount of reagent.
Target gene,amplicon,"induced reporter light, run 1, well a","induced reporter light, run 1, well b","control promoter light, run 1, well a","control promoter light, run 1, well b","uninduced reporter light, run 1, well a"
Mmp1 (Matrix metalloproteinase 1),DRSC04493,1.52e5,1.15e5,1.41e5,1.67e5,11595
spin (spinster),DRSC07176,1.25e5,1.43e5,1.96e5,2.26e5,8595
CG34197 (retired record),DRSC05791,77520,77880,1.30e5,1.40e5,8355
CG14589,DRSC04866,1.61e5,1.40e5,1.52e5,1.54e5,11225
ND-15 (NADH dehydrogenase (ubiquinone) 15 kDa subunit),DRSC00311,1.23e5,1.41e5,1.60e5,1.90e5,13215
Ir94c (Ionotropic receptor 94c),DRSC13539,69330,61215,1.03e5,78945,8330
Pat1 (Protein interacting with APP tail-1),DRSC17750,2.29e5,1.86e5,2.54e5,2.20e5,15450
pdm2 (POU domain protein 2),DRSC02496,1.41e5 (active),1.40e5,73260,65810,12492
pdm2 (POU domain protein 2),DRSC02497,46455,46745,32520,37785,5100
pdm2 (POU domain protein 2),DRSC03587,1.73e5 (active),1.87e5,1.26e5,1.32e5,13650
CG31871,DRSC02567,1.71e5,1.96e5,87870,1.36e5,19200
CG31871,DRSC02571,2.27e5,2.20e5,1.31e5,1.63e5,26755
Pgm2a (Phosphoglucomutase 2a),DRSC07068,94120,1.10e5,1.10e5,87075,8265
CG6048,DRSC18398,1.67e5,1.68e5,3.07e5,3.22e5,10700
CG6576,DRSC10663,2.01e5,2.14e5,2.40e5,2.41e5,11495
CCT1 (Chaperonin containing TCP1 subunit 1),DRSC16877,32980,33875,37180,33690,3460
GstD5 (Glutathione S transferase D5),DRSC16686,27230,30970,26920,21450,1325
CG17287,DRSC06659,67720,88160,1.06e5,98940,8555
jbug (jitterbug),DRSC03952,83365,71580,95385,96985,7710
jbug (jitterbug),DRSC04114,2.05e5,2.01e5,1.37e5,1.63e5,12992
jbug (jitterbug),DRSC04167,1.46e5,1.77e5,1.84e5,1.23e5,11860
jbug (jitterbug),DRSC04388,2.42e5,2.34e5,2.13e5,1.95e5,18930
Obp99d (Odorant-binding protein 99d),DRSC15046,1.10e5,1.19e5,1.60e5,1.44e5,9435
et (eye transformer),DRSC19582,93495,1.09e5,1.24e5,1.12e5,10790
Sf3b1 (Splicing factor 3b subunit 1),DRSC00535,63110,54575,65810,51825,2805
fz4 (frizzled 4),DRSC18780,1.38e5,1.53e5,3.04e5,2.90e5,11045
Nprl3 (Nitrogen permease regulator-like 3),DRSC11044,1.50e5,1.46e5,1.27e5,1.30e5,12270
CG31431,DRSC14589,1.91e5,1.75e5,2.18e5,2.08e5,12855
CG6980,DRSC16162,1.48e5,1.73e5,2.23e5,2.15e5,15945
CG31200,DRSC15285,1.85e5,1.89e5,2.02e5,1.92e5,11120
CG6066,DRSC15959,1.16e5,1.49e5,1.87e5,1.74e5,10728
Crag,DRSC18454,1.64e5,1.40e5,1.90e5,1.55e5,10530
sowi (solwind),DRSC12558,65010,79320,81355,74480,6425
CR30029 (pseudo),DRSC06724,1.24e5,1.14e5,1.66e5,1.32e5,12240
